Data: the supplement of paper PMC10849652
Some of the results follow.

Protein sequences, listed by entry. Tags and fused reporters are not part of them. Lines headed by an entry give the natural chain unless they say otherwise; changes in a name come on top.
UniProt O75190: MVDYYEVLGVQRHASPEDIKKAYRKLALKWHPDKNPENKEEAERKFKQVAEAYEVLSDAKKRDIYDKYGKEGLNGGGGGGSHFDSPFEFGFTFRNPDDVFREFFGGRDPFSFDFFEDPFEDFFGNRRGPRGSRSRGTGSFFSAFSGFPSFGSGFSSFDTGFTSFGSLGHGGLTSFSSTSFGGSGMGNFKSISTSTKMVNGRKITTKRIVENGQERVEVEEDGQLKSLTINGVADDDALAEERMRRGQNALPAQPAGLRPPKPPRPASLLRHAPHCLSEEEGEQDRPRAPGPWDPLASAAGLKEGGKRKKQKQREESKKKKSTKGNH
UniProt Q12959, whole entry, looked up: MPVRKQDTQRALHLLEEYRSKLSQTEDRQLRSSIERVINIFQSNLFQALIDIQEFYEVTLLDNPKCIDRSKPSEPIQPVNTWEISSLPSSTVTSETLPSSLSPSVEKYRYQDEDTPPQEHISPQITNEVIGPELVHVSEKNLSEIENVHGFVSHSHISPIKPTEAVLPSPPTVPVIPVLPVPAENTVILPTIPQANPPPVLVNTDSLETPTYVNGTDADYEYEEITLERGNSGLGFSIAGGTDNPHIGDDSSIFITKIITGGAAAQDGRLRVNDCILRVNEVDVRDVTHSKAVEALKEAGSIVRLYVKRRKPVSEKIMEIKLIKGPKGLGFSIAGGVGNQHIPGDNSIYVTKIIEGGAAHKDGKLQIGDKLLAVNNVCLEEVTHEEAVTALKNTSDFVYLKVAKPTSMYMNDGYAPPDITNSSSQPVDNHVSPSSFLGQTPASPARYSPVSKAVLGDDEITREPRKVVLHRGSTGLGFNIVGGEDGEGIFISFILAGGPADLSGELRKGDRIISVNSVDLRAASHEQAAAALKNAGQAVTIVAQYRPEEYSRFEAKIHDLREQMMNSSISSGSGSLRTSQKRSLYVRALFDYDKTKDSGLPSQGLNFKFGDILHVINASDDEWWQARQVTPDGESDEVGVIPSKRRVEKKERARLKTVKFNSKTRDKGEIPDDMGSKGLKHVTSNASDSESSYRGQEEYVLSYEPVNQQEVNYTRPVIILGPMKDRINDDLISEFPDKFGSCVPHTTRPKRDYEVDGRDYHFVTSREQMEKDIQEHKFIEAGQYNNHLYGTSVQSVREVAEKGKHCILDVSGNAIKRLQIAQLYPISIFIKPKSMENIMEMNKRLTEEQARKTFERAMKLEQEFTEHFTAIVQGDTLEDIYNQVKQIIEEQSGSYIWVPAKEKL
UniProt Q9UBM7: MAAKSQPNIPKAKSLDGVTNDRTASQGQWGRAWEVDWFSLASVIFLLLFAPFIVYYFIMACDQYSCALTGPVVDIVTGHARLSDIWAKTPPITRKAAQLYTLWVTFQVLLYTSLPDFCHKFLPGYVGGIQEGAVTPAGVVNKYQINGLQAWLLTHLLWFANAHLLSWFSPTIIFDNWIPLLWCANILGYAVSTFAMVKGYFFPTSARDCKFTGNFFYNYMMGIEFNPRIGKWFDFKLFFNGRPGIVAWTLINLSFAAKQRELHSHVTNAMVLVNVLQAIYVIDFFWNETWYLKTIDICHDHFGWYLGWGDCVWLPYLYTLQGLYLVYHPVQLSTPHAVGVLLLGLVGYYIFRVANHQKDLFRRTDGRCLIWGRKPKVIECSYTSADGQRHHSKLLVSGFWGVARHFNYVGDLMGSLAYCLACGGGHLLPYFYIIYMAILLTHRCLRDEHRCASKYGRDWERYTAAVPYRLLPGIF
UniProt P49366: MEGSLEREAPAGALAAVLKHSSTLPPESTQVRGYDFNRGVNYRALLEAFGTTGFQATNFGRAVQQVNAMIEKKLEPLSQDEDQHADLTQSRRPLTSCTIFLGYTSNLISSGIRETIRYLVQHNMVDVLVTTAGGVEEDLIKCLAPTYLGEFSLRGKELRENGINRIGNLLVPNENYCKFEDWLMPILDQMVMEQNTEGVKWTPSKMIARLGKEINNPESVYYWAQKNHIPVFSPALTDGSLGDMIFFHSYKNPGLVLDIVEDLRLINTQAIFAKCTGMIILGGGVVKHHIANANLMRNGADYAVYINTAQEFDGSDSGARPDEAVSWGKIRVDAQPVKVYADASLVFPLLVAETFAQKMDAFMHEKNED
UniProt Q99543: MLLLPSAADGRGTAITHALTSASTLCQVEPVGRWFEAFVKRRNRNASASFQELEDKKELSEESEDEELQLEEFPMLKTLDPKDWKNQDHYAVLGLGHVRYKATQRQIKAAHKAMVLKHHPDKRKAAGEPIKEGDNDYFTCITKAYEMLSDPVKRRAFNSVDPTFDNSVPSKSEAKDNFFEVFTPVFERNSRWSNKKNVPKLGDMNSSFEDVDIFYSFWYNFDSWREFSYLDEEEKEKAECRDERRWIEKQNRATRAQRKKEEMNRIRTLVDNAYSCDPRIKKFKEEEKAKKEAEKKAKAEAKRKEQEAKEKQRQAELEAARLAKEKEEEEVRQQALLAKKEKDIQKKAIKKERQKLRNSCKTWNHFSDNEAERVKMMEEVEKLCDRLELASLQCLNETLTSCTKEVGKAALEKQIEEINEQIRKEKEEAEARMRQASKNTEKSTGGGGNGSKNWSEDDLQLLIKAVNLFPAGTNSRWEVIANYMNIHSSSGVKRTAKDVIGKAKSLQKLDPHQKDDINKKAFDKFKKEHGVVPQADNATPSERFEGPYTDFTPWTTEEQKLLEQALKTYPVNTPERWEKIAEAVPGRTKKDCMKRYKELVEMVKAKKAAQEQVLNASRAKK
UniProt Q16854: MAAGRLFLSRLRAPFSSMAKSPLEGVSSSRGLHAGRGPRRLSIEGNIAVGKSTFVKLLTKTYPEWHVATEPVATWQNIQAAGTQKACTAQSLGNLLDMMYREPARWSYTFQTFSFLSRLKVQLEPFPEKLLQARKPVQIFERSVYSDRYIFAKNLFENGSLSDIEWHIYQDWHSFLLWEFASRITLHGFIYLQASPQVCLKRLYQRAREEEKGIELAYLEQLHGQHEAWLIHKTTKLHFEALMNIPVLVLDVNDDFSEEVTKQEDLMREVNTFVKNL
UniProt O60884: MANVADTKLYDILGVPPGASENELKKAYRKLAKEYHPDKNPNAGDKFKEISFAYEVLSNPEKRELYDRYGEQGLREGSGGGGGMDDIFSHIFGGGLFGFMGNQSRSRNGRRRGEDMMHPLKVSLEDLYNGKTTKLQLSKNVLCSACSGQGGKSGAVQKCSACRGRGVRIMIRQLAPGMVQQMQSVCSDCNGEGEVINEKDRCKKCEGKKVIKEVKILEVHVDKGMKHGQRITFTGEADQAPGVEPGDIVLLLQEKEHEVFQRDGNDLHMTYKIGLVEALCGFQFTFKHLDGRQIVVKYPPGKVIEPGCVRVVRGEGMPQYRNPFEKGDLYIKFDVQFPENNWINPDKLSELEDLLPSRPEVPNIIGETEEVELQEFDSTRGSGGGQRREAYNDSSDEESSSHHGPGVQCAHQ
UniProt Q99704: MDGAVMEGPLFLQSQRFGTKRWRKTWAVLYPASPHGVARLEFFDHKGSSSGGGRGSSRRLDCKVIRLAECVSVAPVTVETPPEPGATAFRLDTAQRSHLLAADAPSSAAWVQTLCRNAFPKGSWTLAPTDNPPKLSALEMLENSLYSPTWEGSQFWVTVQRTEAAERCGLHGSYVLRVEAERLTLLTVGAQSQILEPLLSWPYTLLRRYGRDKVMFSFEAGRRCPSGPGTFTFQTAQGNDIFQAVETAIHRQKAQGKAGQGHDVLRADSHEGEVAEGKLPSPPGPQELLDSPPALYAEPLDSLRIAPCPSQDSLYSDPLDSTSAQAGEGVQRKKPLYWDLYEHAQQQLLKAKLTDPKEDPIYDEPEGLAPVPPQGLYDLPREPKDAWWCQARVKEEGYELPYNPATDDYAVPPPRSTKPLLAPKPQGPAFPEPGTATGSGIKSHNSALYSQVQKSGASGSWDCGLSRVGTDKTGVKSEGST
UniProt Q92796: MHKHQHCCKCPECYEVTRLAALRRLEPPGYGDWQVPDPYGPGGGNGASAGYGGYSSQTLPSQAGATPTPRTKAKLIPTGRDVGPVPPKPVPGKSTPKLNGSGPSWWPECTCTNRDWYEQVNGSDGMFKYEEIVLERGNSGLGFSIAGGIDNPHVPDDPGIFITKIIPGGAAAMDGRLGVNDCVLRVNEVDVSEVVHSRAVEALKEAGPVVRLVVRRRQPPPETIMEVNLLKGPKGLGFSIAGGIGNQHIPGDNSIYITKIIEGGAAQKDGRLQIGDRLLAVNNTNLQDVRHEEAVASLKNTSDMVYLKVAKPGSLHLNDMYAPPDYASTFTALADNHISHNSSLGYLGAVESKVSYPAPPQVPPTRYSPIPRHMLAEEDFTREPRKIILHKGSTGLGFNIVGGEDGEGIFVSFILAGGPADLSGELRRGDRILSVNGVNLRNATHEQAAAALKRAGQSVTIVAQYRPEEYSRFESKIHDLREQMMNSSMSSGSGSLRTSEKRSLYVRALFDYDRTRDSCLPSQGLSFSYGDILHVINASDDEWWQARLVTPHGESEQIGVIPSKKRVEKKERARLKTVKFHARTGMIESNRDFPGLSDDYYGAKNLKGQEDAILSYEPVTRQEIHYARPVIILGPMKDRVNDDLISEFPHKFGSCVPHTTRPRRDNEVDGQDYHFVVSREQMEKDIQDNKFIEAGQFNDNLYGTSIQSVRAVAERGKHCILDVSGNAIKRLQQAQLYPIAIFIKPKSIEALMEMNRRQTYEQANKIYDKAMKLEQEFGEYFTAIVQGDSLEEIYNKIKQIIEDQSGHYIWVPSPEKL
UniProt O60231: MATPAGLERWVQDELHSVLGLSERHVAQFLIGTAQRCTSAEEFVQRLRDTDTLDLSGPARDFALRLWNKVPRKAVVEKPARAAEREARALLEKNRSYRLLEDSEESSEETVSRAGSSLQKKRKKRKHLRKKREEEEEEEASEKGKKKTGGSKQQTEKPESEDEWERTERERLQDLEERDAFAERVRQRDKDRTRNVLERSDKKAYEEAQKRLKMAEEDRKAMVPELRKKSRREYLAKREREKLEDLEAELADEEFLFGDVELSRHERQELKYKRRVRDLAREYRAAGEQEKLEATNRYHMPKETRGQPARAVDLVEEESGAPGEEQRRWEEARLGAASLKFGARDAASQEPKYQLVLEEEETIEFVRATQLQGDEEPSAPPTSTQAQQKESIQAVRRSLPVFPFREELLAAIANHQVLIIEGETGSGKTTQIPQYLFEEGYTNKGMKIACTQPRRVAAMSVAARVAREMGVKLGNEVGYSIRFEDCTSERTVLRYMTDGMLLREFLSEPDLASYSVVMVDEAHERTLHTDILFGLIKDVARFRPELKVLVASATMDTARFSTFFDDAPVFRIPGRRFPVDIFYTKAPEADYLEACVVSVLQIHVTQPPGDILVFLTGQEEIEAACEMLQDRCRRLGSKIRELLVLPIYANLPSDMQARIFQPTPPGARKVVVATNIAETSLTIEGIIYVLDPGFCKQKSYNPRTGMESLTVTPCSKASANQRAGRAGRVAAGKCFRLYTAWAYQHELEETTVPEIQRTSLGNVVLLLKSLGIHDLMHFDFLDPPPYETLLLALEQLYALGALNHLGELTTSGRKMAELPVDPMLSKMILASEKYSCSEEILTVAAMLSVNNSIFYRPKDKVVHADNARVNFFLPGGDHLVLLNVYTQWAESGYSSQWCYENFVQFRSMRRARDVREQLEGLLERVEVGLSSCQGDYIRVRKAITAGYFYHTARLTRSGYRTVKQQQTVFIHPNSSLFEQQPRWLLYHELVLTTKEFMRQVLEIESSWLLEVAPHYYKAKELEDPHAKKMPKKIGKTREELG
UniProt P50570: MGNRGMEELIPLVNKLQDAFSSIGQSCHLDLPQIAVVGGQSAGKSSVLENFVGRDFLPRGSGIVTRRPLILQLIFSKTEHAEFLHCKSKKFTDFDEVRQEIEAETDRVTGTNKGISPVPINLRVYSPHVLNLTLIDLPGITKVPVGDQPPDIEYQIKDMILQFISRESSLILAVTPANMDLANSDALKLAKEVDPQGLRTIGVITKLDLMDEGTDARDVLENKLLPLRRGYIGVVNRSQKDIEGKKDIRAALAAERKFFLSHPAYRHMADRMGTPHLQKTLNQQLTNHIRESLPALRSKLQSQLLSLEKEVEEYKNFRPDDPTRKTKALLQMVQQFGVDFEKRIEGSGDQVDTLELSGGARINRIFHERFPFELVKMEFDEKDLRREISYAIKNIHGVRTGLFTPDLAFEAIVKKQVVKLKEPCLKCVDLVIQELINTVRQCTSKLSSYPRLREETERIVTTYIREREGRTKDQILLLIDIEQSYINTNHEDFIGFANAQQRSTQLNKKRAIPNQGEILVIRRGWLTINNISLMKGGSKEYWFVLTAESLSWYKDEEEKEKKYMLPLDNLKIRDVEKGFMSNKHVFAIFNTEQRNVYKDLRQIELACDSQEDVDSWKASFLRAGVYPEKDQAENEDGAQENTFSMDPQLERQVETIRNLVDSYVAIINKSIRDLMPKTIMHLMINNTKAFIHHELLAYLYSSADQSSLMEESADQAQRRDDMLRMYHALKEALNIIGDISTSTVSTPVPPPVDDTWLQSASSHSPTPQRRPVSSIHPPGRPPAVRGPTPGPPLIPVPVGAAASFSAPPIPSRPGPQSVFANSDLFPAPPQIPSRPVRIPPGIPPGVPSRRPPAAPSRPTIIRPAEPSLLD

What was measured:
Assay in all cases: log2 fold change, soluble protein after heating vs DMSO (PISA); higher = thermal stabilisation; K562 lysate, 10 uM; active = over 0.2 and 3.5 SD of the protein, either way, in both replicates (recomputed)
lapatinib = compound: CS(=O)(=O)CCNCc1ccc(-c2ccc3ncnc(Nc4ccc(OCc5cccc(F)c5)c(Cl)c4)c3c2)o1 [lapatinib]
Summary of the method: (§1)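 K562 pellets were dounce-homogenised in PBS pH 7.4 with 1 mM MgCl2, and the crude extract at 1 mg/mL protein was treated with 10 μM compound for 30 min. Aliquots were heated for 3 min across 48°C-58°C, pooled, and brought to 0.5% NP-40 at 4°C; soluble protein was the supernatant after 21,000xg for 90 min. Soluble protein was quantified by TMTpro 16plex LC-MS/MS with channel sums equalised, and reported as log2 fold change in thermal stability against DMSO controls, with values from duplicates.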

pictilisib = compound: CS(=O)(=O)N1CCN(Cc2cc3nc(-c4cccc5[nH]ncc45)nc(N4CCOCC4)c3s2)CC1 [pictilisib]
Summary of the method: as §1

crizotinib = compound: C[C@@H](Oc1cc(-c2cnn(C3CCNCC3)c2)cnc1N)c1c(Cl)ccc(F)c1Cl [crizotinib]
Summary of the method: as §1

[1] = compound: C[C@H](C1=CC=C(C=C1)C(=O)NC2=C3C=CNC3=NC=C2)N
Summary of the method: as §1

duvelisib = compound: C[C@H](Nc1ncnc2nc[nH]c12)c1cc2cccc(Cl)c2c(=O)n1-c1ccccc1 [duvelisib]
Summary of the method: as §1

gandotinib = compound: Cc1cc(Nc2cc(CN3CCOCC3)c3nc(C)c(Cc4ccc(Cl)cc4F)n3n2)n[nH]1 [gandotinib]
Summary of the method: as §1

tozasertib = compound: Cc1cc(Nc2cc(N3CCN(C)CC3)nc(Sc3ccc(NC(=O)C4CC4)cc3)n2)n[nH]1 [tozasertib]
Summary of the method: as §1

doramapimod = compound: Cc1ccc(-n2nc(C(C)(C)C)cc2NC(=O)Nc2ccc(OCCN3CCOCC3)c3ccccc23)cc1 [doramapimod]
Summary of the method: as §1

bafetinib = compound: Cc1ccc(NC(=O)c2ccc(CN3CC[C@H](N(C)C)C3)c(C(F)(F)F)c2)cc1Nc1nccc(-c2cncnc2)n1 [bafetinib]
Summary of the method: as §1

[2] = compound: Cc1cccc(CC(=O)N2CCc3c2ccc(-c2cn(C)c4ncnc(N)c24)c3F)n1
Summary of the method: as §1

nilotinib = compound: Cc1cn(-c2cc(NC(=O)c3ccc(C)c(Nc4nccc(-c5cccnc5)n4)c3)cc(C(F)(F)F)c2)cn1 [nilotinib]
Summary of the method: as §1

[3] = compound: Cc1nc(Nc2n[nH]c3c2CN(C(=O)N[C@H](CN(C)C)c2ccccc2)C3(C)C)c2sccc2n1
Summary of the method: as §1

dasatinib = compound: Cc1nc(Nc2ncc(C(=O)Nc3c(C)cccc3Cl)s2)cc(N2CCN(CCO)CC2)n1 [dasatinib]
Summary of the method: as §1

[4] = compound: Cc1ncc(-c2ccnc(Nc3ccc(S(C)(=O)=O)cc3)n2)n1C(C)C
Summary of the method: as §1

[5] = compound: Cn1cc(-c2ccc3c(c2)CCN3C(=O)Cc2cccc(C(F)(F)F)c2)c2c(N)ncnc21
Summary of the method: as §1

quisinostat = compound: Cn1cc(CNCC2CCN(c3ncc(C(=O)NO)cn3)CC2)c2ccccc21 [quisinostat]
Summary of the method: as §1

tipifarnib = compound: Cn1cncc1[C@@](N)(c1ccc(Cl)cc1)c1ccc2c(c1)c(-c1cccc(Cl)c1)cc(=O)n2C [tipifarnib]
Summary of the method: as §1

[6] = compound: NC(=O)Nc1cc(-c2cccc(F)c2)sc1C(=O)N[C@H]1CCCNC1
Summary of the method: as §1

[7] = compound: NC(=O)c1cnc(N[C@@H]2CCCC[C@@H]2N)nc1Nc1cccc(-n2nccn2)c1
Summary of the method: as §1

[8] = compound: NC1(c2ccc(-c3nc4ccn5c(=O)[nH]nc5c4cc3-c3ccccc3)cc2)CCC1
Summary of the method: as §1

Measured: log2 fold change

DNAJB6 (UniProt O75190)
inactive: lapatinib 0.002 | pictilisib 0.042 | crizotinib -0.083 | [1] 0.01 | duvelisib 0.049 | gandotinib 0.004 | tozasertib 0.002 | doramapimod 0.01 | bafetinib -0.138 | [2] 0.043 | nilotinib -0.038 | [3] 0.032 | dasatinib 0.09 | [4] 0.01 | [5] -0.04 | quisinostat -0.162 | tipifarnib -0.084 | [6] 0.044 | [7] 0.105 | [8] 0.018

DLG1 isoform 2 (UniProt Q12959)
inactive: lapatinib -0.001 | pictilisib -0.007 | crizotinib -0.027 | [1] 0.022 | duvelisib -0.011 | gandotinib -0.016 | tozasertib -0.078 | doramapimod 0.001 | bafetinib 0.003 | [2] -0.012 | nilotinib -0.036 | [3] 0.026 | dasatinib -0.006 | [4] -0.042 | [5] 0.032 | quisinostat -0.027 | tipifarnib 0.058 | [6] 0.02 | [7] 0.008 | [8] -0.047

DIMT1 (UniProt Q9UNQ2)
inactive: lapatinib -0.006 | pictilisib -0.018 | crizotinib 0.046 | [1] 0.027 | duvelisib -0.002 | gandotinib -0.046 | tozasertib 0.025 | doramapimod -0.032 | bafetinib 0.006 | [2] -0.023 | nilotinib -0.04 | [3] 0.034 | dasatinib -0.018 | [4] -0.017 | [5] 0.017 | quisinostat 0.105 | tipifarnib 0.024 | [6] 0.008 | [7] -0.003 | [8] 0.015

DNPEP (UniProt Q9ULA0)
inactive: lapatinib -0.007 | pictilisib -0.017 | crizotinib 0.018 | [1] -0.009 | duvelisib 0.023 | gandotinib 0.021 | tozasertib 0.002 | doramapimod -0.029 | bafetinib -0.005 | [2] -0.031 | nilotinib 0.011 | [3] -0.015 | dasatinib 0.003 | [4] 0.001 | [5] -0.016 | quisinostat -0.015 | tipifarnib -0.018 | [6] -0.003 | [7] -0.026 | [8] 0.005

DHCR7 (UniProt Q9UBM7)
inactive: lapatinib -0.092 | pictilisib -0.039 | crizotinib -0.103 | [1] -0.024 | duvelisib 0.067 | tozasertib -0.01 | doramapimod 0.002 | bafetinib 0.024 | [2] 0.013 | nilotinib -0.013 | [3] 0.016 | dasatinib 0.011 | [4] 0 | [5] 0.013 | quisinostat 0.234 | tipifarnib 0.015 | [6] 0.029 | [7] 0.008 | [8] 0.047
active: gandotinib -0.215

DHPS (UniProt P49366)
inactive: lapatinib -0.013 | pictilisib -0.033 | crizotinib -0.063 | [1] -0.042 | duvelisib 0.006 | gandotinib 0.045 | tozasertib -0.013 | doramapimod 0.023 | bafetinib 0.052 | [2] 0.022 | nilotinib 0.019 | [3] 0.002 | dasatinib 0.017 | [4] 0.028 | [5] -0.02 | quisinostat -0.08 | tipifarnib 0.021 | [6] 0 | [7] 0.033 | [8] 0.011

DNAJC2 (UniProt Q99543)
inactive: lapatinib 0.016 | pictilisib 0.026 | crizotinib 0.02 | [1] 0.004 | duvelisib -0.008 | gandotinib -0.035 | tozasertib -0.009 | doramapimod 0.017 | bafetinib -0.02 | [2] 0.012 | nilotinib -0.014 | [3] -0.011 | dasatinib 0.007 | [4] 0.001 | [5] 0.042 | quisinostat 0.06 | tipifarnib 0.011 | [6] 0.029 | [7] -0.004 | [8] -0.011

DGUOK (UniProt Q16854)
inactive: lapatinib 0.014 | pictilisib -0.012 | crizotinib 0.057 | [1] -0.022 | duvelisib -0.002 | gandotinib 0.036 | tozasertib 0.007 | doramapimod -0.068 | bafetinib 0.017 | [2] -0.021 | nilotinib 0.019 | [3] 0.01 | dasatinib -0.018 | [4] 0.043 | [5] -0.042 | quisinostat 0.024 | tipifarnib -0.016 | [6] -0.037 | [7] -0.018 | [8] -0.027

DKC1 (UniProt O60832)
inactive: lapatinib -0.039 | pictilisib -0.025 | crizotinib -0.002 | [1] -0.035 | duvelisib -0.002 | gandotinib -0.007 | tozasertib -0.021 | doramapimod 0.05 | bafetinib 0.006 | [2] 0.019 | nilotinib -0.024 | [3] -0.008 | dasatinib -0.027 | [4] -0.003 | [5] -0.014 | quisinostat -0.02 | tipifarnib 0.012 | [6] 0.012 | [7] 0.004 | [8] -0.026

DNAJA2 (UniProt O60884)
inactive: lapatinib -0.027 | pictilisib 0.056 | crizotinib 0 | [1] 0.045 | duvelisib 0.018 | gandotinib -0.018 | tozasertib -0.009 | doramapimod 0.035 | bafetinib -0.006 | [2] 0.018 | nilotinib -0.002 | [3] 0.051 | dasatinib 0.009 | [4] 0.028 | [5] -0.007 | quisinostat -0.001 | tipifarnib -0.038 | [6] -0.008 | [7] -0.027 | [8] 0.025

Two neighbouring entries already listed:
DIMT1 (UniProt Q9UNQ2)
inactive: lapatinib -0.006 | pictilisib -0.018 | crizotinib 0.046 | [1] 0.027 | duvelisib -0.002 | gandotinib -0.046 | tozasertib 0.025 | doramapimod -0.032 | bafetinib 0.006 | [2] -0.023 | nilotinib -0.04 | [3] 0.034 | dasatinib -0.018 | [4] -0.017 | [5] 0.017 | quisinostat 0.105 | tipifarnib 0.024 | [6] 0.008 | [7] -0.003 | [8] 0.015

DNPEP (UniProt Q9ULA0)
inactive: lapatinib -0.007 | pictilisib -0.017 | crizotinib 0.018 | [1] -0.009 | duvelisib 0.023 | gandotinib 0.021 | tozasertib 0.002 | doramapimod -0.029 | bafetinib -0.005 | [2] -0.031 | nilotinib 0.011 | [3] -0.015 | dasatinib 0.003 | [4] 0.001 | [5] -0.016 | quisinostat -0.015 | tipifarnib -0.018 | [6] -0.003 | [7] -0.026 | [8] 0.005

Going on with the list:

DOK1 (UniProt Q99704)
inactive: lapatinib 0.01 | pictilisib -0.026 | crizotinib 0.007 | [1] -0.056 | duvelisib -0.002 | gandotinib 0.042 | tozasertib 0.008 | doramapimod 0.044 | bafetinib -0.006 | [2] -0.001 | nilotinib -0.019 | [3] 0.05 | dasatinib 0.014 | [4] -0.103 | [5] 0.023 | quisinostat -0.032 | tipifarnib 0.048 | [6] 0.07 | [7] -0.055 | [8] 0.018

DNAH8 (UniProt Q96JB1)
inactive: lapatinib -0.134 | pictilisib -0.01 | crizotinib -0.098 | [1] -0.146 | duvelisib 0.055 | gandotinib 0.008 | tozasertib -0.05 | doramapimod -0.091 | bafetinib -0.185 | [2] 0.047 | nilotinib 0.102 | [3] -0.144 | dasatinib -0.084 | [4] -0.023 | [5] 0.065 | quisinostat -0.42 | tipifarnib -0.005 | [6] 0.041 | [7] 0.03 | [8] -0.028

DLG3 isoform 2 (UniProt Q92796)
inactive: lapatinib 0.008 | pictilisib 0.073 | crizotinib -0.01 | [1] -0.047 | duvelisib 0.125 | gandotinib 0 | tozasertib 0.097 | doramapimod 0.043 | bafetinib 0.055 | [2] 0.065 | nilotinib -0.036 | [3] 0.027 | dasatinib -0.062 | [4] 0.146 | [5] -0.004 | quisinostat -0.007 | tipifarnib 0.085 | [6] -0.03 | [7] -0.031 | [8] -0.049

DHX16 (UniProt O60231)
inactive: lapatinib 0.021 | pictilisib -0.031 | crizotinib -0.026 | [1] 0.023 | duvelisib 0.002 | gandotinib -0.054 | tozasertib 0.006 | doramapimod 0.013 | bafetinib -0.016 | [2] -0.081 | nilotinib -0.007 | [3] -0.019 | dasatinib -0.011 | [4] 0.003 | [5] 0.012 | quisinostat -0.045 | tipifarnib -0.02 | [6] -0.003 | [7] -0.011 | [8] -0.029

DNM2 (UniProt P50570)
inactive: lapatinib -0.003 | pictilisib 0.022 | crizotinib -0.013 | [1] 0.021 | duvelisib -0.007 | gandotinib -0.076 | tozasertib 0.001 | doramapimod 0.033 | bafetinib -0.011 | [2] 0.035 | nilotinib 0 | [3] -0.015 | dasatinib -0.045 | [4] -0.016 | [5] 0.028 | quisinostat 0.016 | tipifarnib 0.011 | [6] 0.034 | [7] 0.037 | [8] 0.009
